Results from EP0183271B1, “Lysin derivative and proteinase inhibitor” (Okamoto, Shosuke, priority 1984, dated 1986).
Some results were stated once for a whole list of compounds, not compound by compound.

Protein sequences, listed by entry. Tags and fused reporters are not part of them. Residues count along the entry.
UniProt P00747, 97-580 partner limits assumed: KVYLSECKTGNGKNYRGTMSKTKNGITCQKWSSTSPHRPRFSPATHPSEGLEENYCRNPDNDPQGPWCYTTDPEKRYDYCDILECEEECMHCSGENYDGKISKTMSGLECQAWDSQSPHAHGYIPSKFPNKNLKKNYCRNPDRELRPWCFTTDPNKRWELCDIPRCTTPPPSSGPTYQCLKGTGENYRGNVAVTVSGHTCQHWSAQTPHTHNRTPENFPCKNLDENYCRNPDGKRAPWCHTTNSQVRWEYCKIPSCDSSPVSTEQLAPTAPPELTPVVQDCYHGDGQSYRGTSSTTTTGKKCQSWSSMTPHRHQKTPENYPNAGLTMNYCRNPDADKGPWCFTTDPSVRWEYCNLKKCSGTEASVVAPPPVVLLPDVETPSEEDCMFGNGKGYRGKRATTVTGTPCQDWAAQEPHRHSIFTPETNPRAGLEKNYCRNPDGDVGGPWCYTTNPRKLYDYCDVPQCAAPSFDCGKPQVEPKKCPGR
UniProt P00747, 581-810 limits assumed: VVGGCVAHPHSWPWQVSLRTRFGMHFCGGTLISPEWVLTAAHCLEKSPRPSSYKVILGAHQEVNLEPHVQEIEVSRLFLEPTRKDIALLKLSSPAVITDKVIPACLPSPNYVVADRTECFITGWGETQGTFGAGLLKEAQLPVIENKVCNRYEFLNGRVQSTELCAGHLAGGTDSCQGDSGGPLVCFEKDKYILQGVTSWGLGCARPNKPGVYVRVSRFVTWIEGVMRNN

The compounds below were run against Plasmin (Homo sapiens, UniProt P00747) (assay: Antiplasmin activity, overall statements). Conditions: known compounds of Table II; statement in words summarising Table III.
Format: biochemical

Inhibition activity against the action of plasmin, very low:
NCCCC[C@H](NC(=O)c1ccccc1)C(N)=O [Compound No. 8]
NCCCCCC(=O)N[C@@H](CCCCN)C(=O)O [Compound No. 7]
NCCCC[C@H](NS(=O)(=O)c1ccccc1)C(N)=O [compound 4]
